Source: US20200089110A1, “SULFONIC ACID DERIVATIVE COMPOUNDS AS PHOTOACID GENERATORS IN RESIST APPLICATIONS” (Heraeus Precious Metals North America Daychem LLC, priority 2015, published 2020)

Assay: Photolysis of PAGs in acetonitrile under 365 nm irradiation (photoreactivity)
Type: physicochemical
Details: for Relative Photoreactivity at 365 nm: photoreaction constant relative to NIT normalized to one, air, room temperature, 3×10^−5 M
Source text: A photoresist composition typically comprises PAG, polymers, additives and solvents. The performance of a photoresist composition is mainly dependent on the properties of the PAG and polymer components. To formulate a high-performance photoresist composition, more photosensitive PAGs are typically selected. The photosensitivity of a PAG is typically directly related to the strength of the generated acid and the photoreactivity of the PAG. For a series of PAGs producing the same latent acid, their photosensitivity is related only to their photoreactivity. Thus evaluating the photosensitivity of a PAG can be achieved by studying its photoreactivity. The higher photoreactivity, the higher photosensitivity. The photoreactivity can be investigated by photolysis of a PAG in its dilute solution under low exposure intensity (to avoid side reactions which don't generate the desired acid). The change in the concentration of a PAG upon irradiation can be determined by measuring the absorbance of the PAG at the maximum absorption wavelength.
Photolysis of PAGs was carried out in acetonitrile in air at room temperature. The sodium salt of tetrabromophenol blue (TBPBNa), an acid indicator dye, which has a maximum absorption at 618 nm, was purchased from Aldrich (indicator grade) and used as received. Irradiation of the solution of the PAGs (3×10^−5 M) was performed using a Cole-Parmer UV 15 W bench lamp (EW-97605-50) at 365 nm. Light intensity was measured using an UV Power Puck II radiometer from EIT Inc. UV-Vis spectra were run on a Thermo Scientific Evolution 201 UV-visible spectrophotometer.
Photolysis of NIT, comparative compound A, D-1, and D-2 was examined in acetonitrile. The absorption band at 397 nm gradually decreases upon irradiation, indicating the progress of photoreaction with the increase of exposure dose of energy. Assuming the photoreaction is first-order, plot of natural log of changes in absorbance with exposure dose of energy gives the photoreaction constant of D-2 (i.e. the slope of the linear trendline) (FIG. 2). The photoreaction constants of other compounds were similarly determined under the same irradiation condition.
Comparing the constants of A, D-1, and D-2 with that of NIT normalized to one gives the relative photoreactivity (Table 7). The photoreactivity for PAG (e.g. D-2) according to the present disclosure is ˜8 times greater than that of NIT and ˜3 times greater than that of Comparative Compound A. The formation of acid upon irradiation was confirmed by observing the spectral changes of the acid indicator, TBPBNa at 618 nm.

## CCC(C)Oc1ccc(/C=C/c2ccc3c4c(cccc24)C(=O)N(OS(=O)(=O)C(F)(F)F)C3=O)cc1 (stereo not shown)
  Relative Photoreactivity at 365 nm: 8.7

## O=C1c2cccc3c(C#Cc4ccccc4)ccc(c23)C(=O)N1OS(=O)(=O)C(F)(F)F [Comparative Compound A, reference compound]
  Relative Photoreactivity at 365 nm: 2.5

## CCCCOC(=O)/C=C/c1ccc2c3c(cccc13)C(=O)N(OS(=O)(=O)C(F)(F)F)C2=O [Compound D-1]
  Relative Photoreactivity at 365 nm: 1.8

## O=C1c2cccc3c(/C=C/c4ccccc4)ccc(c23)C(=O)N1OS(=O)(=O)C(F)(F)F [Compound D-2]
365 nm
  photoreactivity, times greater than that of Comparative Compound A: ~3 times
  photoreactivity, times greater than that of NIT: ~8 times
  Relative Photoreactivity at 365 nm: 8.2

## O=C1c2cccc3cccc(c23)C(=O)N1OS(=O)(=O)C(F)(F)F [NIT, N-Hydroxynaphthalimide triflate, reference compound]
  Relative Photoreactivity at 365 nm: 1.0
